Experimental findings from the supplement of paper PMC6411743 are described below.

Chains of the proteins cited; added tags and fusions are not shown. Lines headed by an entry give the natural chain unless they say otherwise; changes in a name come on top.
UniProt Q9UDW1: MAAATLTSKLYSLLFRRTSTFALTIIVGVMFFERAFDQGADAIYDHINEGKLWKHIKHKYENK
UniProt Q9UHR6: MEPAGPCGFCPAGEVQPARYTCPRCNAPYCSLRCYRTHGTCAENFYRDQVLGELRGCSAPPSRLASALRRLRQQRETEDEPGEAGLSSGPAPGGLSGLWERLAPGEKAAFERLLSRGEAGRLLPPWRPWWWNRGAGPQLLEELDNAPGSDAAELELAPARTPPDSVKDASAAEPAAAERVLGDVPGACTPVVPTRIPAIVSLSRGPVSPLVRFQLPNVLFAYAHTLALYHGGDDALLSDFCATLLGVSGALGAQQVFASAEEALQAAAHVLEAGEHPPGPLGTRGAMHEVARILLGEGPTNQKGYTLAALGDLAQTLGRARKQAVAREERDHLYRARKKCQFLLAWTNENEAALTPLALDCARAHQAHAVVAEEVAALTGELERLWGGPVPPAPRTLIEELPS
UniProt Q9UJ14: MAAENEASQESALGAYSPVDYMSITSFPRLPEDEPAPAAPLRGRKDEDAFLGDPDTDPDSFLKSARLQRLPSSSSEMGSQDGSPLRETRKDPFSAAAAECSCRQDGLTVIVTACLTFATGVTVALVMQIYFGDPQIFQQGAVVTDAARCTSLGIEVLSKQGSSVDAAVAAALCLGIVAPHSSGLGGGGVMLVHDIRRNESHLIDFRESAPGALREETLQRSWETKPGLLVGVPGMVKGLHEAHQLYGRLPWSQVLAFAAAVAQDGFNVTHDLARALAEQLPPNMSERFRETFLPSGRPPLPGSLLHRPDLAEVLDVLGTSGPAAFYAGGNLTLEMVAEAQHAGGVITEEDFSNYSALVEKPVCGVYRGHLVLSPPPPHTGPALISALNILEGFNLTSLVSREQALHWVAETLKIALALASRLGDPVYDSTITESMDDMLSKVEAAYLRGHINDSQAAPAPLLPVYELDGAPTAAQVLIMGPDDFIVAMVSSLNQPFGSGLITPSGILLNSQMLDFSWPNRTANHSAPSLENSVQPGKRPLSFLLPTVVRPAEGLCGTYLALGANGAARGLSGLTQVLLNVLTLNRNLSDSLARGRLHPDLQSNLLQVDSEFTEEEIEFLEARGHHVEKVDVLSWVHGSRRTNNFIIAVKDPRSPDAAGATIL
UniProt Q9P2C4: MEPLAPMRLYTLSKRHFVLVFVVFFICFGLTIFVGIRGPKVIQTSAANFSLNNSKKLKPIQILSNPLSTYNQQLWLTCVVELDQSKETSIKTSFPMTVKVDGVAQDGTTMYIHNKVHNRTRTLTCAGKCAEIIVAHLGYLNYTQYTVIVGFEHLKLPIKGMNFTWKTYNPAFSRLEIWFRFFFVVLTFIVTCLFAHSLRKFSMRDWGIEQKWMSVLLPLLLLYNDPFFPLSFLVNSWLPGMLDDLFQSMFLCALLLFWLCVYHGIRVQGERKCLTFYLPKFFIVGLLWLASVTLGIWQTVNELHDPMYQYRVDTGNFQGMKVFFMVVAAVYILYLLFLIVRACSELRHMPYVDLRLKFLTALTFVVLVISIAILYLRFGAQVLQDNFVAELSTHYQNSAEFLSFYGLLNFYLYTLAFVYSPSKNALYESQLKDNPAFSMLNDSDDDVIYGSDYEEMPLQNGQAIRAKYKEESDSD
UniProt Q9UJX5, whole entry: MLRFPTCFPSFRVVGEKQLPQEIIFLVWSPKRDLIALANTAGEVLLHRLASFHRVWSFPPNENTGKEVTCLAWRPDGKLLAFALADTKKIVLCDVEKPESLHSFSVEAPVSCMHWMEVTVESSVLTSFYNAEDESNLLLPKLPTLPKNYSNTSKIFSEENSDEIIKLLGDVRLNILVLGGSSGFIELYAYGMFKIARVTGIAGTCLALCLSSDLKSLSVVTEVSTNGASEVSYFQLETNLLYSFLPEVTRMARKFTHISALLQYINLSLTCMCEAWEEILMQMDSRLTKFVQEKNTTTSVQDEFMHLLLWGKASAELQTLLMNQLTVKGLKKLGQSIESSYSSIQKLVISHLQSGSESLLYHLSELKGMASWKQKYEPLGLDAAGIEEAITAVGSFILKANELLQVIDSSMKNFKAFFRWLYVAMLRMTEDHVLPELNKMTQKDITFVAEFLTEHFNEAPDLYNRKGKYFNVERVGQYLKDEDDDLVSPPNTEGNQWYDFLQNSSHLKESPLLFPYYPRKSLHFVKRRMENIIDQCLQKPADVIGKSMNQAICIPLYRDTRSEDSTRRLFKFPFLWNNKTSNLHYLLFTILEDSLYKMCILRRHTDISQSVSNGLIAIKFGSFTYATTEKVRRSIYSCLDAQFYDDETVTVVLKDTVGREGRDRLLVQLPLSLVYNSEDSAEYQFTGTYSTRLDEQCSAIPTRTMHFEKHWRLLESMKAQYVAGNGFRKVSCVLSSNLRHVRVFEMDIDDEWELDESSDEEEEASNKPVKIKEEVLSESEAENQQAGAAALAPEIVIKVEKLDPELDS
UniProt Q9Y217: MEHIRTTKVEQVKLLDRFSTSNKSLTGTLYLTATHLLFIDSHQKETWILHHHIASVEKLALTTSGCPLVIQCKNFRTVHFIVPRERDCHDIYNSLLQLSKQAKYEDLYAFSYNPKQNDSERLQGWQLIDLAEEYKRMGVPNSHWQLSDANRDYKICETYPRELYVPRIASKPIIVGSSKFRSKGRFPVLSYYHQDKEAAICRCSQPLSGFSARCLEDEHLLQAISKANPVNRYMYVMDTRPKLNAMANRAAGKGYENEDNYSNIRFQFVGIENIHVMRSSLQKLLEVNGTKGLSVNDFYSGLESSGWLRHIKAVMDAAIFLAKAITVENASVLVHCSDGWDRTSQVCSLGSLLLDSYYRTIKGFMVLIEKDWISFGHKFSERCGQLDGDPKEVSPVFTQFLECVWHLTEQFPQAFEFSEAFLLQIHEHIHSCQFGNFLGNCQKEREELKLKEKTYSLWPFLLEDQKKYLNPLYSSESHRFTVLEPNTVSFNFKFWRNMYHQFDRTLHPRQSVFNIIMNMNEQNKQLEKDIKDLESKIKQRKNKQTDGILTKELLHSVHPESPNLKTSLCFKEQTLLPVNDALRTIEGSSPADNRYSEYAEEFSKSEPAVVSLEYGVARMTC
UniProt Q9UIG0: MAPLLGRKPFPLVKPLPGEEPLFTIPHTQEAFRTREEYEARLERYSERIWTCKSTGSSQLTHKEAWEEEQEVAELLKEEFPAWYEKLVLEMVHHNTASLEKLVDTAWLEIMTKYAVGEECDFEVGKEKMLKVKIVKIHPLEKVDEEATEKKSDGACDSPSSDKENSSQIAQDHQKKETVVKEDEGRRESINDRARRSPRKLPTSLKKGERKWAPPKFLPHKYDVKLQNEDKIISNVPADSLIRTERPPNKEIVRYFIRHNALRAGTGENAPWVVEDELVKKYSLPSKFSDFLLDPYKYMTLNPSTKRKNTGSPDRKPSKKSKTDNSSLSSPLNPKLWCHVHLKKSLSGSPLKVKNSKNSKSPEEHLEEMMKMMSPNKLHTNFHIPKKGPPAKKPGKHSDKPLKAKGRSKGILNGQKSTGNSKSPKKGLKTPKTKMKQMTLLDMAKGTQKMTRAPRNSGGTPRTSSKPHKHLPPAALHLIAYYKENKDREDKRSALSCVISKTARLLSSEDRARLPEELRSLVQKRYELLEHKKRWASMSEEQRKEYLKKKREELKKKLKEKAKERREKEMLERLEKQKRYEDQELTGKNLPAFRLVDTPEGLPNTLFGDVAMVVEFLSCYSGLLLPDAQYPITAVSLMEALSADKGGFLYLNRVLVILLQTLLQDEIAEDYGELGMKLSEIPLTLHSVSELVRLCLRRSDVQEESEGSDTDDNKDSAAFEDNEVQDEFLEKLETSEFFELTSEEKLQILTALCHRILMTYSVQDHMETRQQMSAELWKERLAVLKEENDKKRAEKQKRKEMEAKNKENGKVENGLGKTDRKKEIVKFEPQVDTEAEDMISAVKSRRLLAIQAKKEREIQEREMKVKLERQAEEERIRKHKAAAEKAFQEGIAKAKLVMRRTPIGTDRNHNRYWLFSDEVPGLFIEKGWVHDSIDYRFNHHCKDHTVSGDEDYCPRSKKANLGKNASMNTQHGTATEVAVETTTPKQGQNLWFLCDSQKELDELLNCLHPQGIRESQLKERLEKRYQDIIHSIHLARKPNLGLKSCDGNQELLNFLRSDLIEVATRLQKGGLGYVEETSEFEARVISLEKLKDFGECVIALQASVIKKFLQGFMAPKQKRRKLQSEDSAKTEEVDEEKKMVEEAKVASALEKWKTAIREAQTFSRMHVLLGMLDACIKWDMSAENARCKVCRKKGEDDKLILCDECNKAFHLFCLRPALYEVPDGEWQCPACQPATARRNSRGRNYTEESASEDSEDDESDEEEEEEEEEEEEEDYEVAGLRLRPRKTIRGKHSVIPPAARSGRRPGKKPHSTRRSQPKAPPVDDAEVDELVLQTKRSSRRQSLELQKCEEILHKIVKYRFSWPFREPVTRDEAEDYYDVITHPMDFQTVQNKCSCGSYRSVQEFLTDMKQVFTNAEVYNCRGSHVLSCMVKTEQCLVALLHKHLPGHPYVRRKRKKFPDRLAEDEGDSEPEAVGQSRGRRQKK
UniProt Q9UPR0: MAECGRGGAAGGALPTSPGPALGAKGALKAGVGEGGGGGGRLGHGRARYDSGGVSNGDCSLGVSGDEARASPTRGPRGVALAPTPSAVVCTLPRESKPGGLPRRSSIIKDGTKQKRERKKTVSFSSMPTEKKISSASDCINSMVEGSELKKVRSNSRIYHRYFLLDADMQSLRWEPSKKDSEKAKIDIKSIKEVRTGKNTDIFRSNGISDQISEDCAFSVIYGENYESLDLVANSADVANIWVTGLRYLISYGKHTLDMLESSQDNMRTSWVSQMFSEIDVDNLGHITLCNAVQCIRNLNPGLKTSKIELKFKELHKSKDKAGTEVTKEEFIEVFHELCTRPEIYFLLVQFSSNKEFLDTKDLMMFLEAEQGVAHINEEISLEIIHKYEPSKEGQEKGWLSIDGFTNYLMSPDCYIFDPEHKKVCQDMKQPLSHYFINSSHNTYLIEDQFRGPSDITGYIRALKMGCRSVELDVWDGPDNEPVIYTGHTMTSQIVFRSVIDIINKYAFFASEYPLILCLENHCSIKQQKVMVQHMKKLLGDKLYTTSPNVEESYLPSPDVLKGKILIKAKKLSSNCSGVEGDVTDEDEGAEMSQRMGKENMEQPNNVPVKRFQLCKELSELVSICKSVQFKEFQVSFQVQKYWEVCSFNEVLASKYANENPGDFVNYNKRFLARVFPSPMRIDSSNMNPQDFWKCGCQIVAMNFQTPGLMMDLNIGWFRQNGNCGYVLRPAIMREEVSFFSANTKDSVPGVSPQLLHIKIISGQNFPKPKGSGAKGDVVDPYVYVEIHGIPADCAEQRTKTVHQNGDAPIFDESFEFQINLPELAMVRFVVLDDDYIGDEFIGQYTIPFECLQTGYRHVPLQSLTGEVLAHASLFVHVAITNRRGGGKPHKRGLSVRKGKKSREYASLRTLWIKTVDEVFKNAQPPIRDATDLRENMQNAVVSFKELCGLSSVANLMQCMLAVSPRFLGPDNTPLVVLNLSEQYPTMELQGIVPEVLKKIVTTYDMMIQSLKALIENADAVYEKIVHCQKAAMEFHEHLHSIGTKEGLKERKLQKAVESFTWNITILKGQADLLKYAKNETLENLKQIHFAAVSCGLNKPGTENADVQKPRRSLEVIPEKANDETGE
UniProt Q9Y289: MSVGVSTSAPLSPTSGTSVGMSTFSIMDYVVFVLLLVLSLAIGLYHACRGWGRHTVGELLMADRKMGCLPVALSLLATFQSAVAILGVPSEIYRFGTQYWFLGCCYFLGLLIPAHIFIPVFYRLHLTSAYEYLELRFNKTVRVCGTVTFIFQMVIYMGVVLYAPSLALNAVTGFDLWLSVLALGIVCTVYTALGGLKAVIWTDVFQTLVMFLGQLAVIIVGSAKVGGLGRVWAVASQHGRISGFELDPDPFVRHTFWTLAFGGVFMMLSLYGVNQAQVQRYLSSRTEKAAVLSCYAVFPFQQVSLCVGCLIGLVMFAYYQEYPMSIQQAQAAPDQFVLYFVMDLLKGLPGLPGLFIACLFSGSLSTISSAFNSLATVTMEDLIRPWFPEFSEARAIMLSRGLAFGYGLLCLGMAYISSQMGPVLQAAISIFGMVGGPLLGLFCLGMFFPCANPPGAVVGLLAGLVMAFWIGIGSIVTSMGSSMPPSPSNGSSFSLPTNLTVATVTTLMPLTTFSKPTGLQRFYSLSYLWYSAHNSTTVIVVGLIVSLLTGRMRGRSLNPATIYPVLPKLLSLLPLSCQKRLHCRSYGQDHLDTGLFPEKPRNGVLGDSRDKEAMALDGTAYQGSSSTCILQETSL
UniProt Q9UNE7: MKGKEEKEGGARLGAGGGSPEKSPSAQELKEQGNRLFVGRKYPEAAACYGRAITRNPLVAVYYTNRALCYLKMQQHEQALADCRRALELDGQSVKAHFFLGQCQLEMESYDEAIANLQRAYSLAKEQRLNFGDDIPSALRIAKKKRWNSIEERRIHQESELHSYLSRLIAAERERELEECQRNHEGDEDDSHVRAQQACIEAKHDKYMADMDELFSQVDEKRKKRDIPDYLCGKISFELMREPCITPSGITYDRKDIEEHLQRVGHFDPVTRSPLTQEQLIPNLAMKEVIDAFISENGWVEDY

Compound in the test: Nc1ncnc2c1ncn2[C@@H]1O[C@H](COP(=O)(O)OP(=O)(O)OP(=O)(O)O)[C@@H](O)[C@H]1O [adenosine triphosphate]
The test is described as follows: NP40-soluble protein abundance relative to vehicle (solubility fold change) (ratio); higher = more soluble protein in presence of ATP. A digest of the protocol:
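Each value is a fold change relative to the detergent-processed vehicle, calculated per replicate from vsn-normalised intensities. Jurkat crude lysate received eight concentrations (0.1 to 10 mM) for 10 min at room temperature and 3 min at 37 °C, then was solubilised in 0.8% NP40 with benzonase (60 min, 4 °C). The ultracentrifuged supernatant was TMT-labelled and run by LC-MS/MS in three independent experiments.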

± gives the standard deviation of the averaged measurements. The entries are a selection whose mix differs from that of the whole data set. Small differences around the control level are noise.

Turning to UniProt Q9UH99, the NP40-soluble protein abundance reads like this: (concentration: 0.1mM) 1.13 ± 0.027; (concentration: 0.5mM) 1.18 ± 0.066.
For SPG7 (UniProt Q9UQ90), in that order: 1.05 ± 0.021 and 1.11 ± 0.052.
For CHMP2B (UniProt Q9UQN3), in that order: 1.07 ± 0.08 and 1.12 ± 0.041.
With HDAC6 (UniProt Q9UBN7), the NP40-soluble protein abundance turned out to be 1 ± 0.079 (concentration: 0.1mM) and 0.986 ± 0.071 (concentration: 0.5mM).
For “UniProt Q9UPQ9-1|Q9UPQ9 and related entries”, in that order: 0.984 ± 0.057 and 0.994 ± 0.053.
On the same counts, the results for LARS (UniProt Q9P2J5) are 1.04 ± 0.044 and 1.03 ± 0.038.
For UniProt Q9UDW1, the NP40-soluble protein abundance is, setting by setting: (concentration: 0.1mM) 0.809 ± 0.14; (concentration: 0.5mM) 0.818 ± 0.27.
For NUDC (UniProt Q9Y266), in that order: 0.959 ± 0.013 and 0.983 ± 0.03.
For the target PCYOX1 (UniProt Q9UHG3), the NP40-soluble protein abundance is, setting by setting: (concentration: 0.1mM) 1.05 ± 0.086; (concentration: 0.5mM) 1.04 ± 0.011.
Consider AK3 (UniProt Q9UIJ7), for which the NP40-soluble protein abundance runs as follows: (concentration: 0.1mM) 0.93 ± 0.019; (concentration: 0.5mM) 0.933 ± 0.048.
For CTTNBP2NL (UniProt Q9P2B4), in that order: 0.998 ± 0.034 and 0.952 ± 0.023.
On the same counts, the results for ZNHIT2 (UniProt Q9UHR6) are 0.919 ± 0.11 and 0.906 ± 0.086.
On the same counts, the results for CFDP1 (UniProt Q9UEE9) are 0.955 ± 0.021 and 0.932 ± 0.022.
Turning to SARDH (UniProt Q9UL12), the NP40-soluble protein abundance by setting is: (concentration: 0.1mM) 1.03 ± 0.028; (concentration: 0.5mM) 1.06 ± 0.055.
On the same counts, the results for UniProt Q9P287 and related entries are 0.976 ± 0.033 and 1.01 ± 0.016.
On the same counts, the results for UniProt Q9UDY2 and related entries are 1.14 ± 0.035 and 1.17 ± 0.054.
For UniProt Q9UHD8 and related entries, in that order: 1.02 ± 0.052 and 1.03 ± 0.065.
As to UniProt Q9ULR0 and related entries, the NP40-soluble protein abundance was determined as 0.961 ± 0.069 (concentration: 0.1mM) and 0.969 ± 0.044 (concentration: 0.5mM).
Consider APPL1 (UniProt Q9UKG1), for which the NP40-soluble protein abundance is 1.07 ± 0.065 (concentration: 0.1mM) and 1.06 ± 0.064 (concentration: 0.5mM).
On the same counts, the results for UniProt Q9UPZ3 and related entries are 1.01 ± 0.028 and 1.03 ± 0.072.
On the same counts, the results for GGT7 (UniProt Q9UJ14) are 1.01 ± 0.13 and 0.879 ± 0.051.
On the same counts, the results for TMEM181 (UniProt Q9P2C4) are 1.03 ± 0.055 and 0.963 ± 0.059.
As to PNMA2 (UniProt Q9UL42), the NP40-soluble protein abundance (concentration: 0.1mM) stood at 0.969 ± 0.025 and the NP40-soluble protein abundance (concentration: 0.5mM) was determined as 0.947 ± 0.06.
For UniProt Q9UNS1 and related entries, in that order: 1.01 ± 0.031 and 1.01 ± 0.041.
On the same counts, the results for NOL7 (UniProt Q9UMY1) are 0.927 ± 0.026 and 1 ± 0.023.
For COPS3 (UniProt Q9UNS2), in that order: 0.922 ± 0.028 and 0.919 ± 0.065.
As to UniProt Q9UBC3 and related entries, the NP40-soluble protein abundance by setting is: (concentration: 0.1mM) 1.07 ± 0.066; (concentration: 0.5mM) 1.3 ± 0.1.
For UniProt Q9UJX5 and related entries, in that order: 1 ± 0.055 and 0.994 ± 0.049.
For UniProt Q9UN36 and related entries, in that order: 0.988 ± 0.018 and 0.962 ± 0.022.
Regarding METTL1 (UniProt Q9UBP6), the NP40-soluble protein abundance (concentration: 0.1mM) came out at 0.995 ± 0.057 and the NP40-soluble protein abundance (concentration: 0.5mM) was found to be 0.99 ± 0.1.
For RAB21 (UniProt Q9UL25), in that order: 0.945 ± 0.027 and 0.966 ± 0.0098.
Turning to UniProt Q9Y252, the NP40-soluble protein abundance by setting is: (concentration: 0.1mM) 0.96 ± 0.086; (concentration: 0.5mM) 1.01 ± 0.1.
In the case of RAB23 (UniProt Q9ULC3), the NP40-soluble protein abundance by setting is: (concentration: 0.1mM) 1.05 ± 0.022; (concentration: 0.5mM) 1.02 ± 0.054.
On the same counts, the results for MTMR6 (UniProt Q9Y217) are 1.05 ± 0.066 and 1.01 ± 0.054.
With UniProt Q9ULL5-3, the NP40-soluble protein abundance turned out to be 0.953 ± 0.059 (concentration: 0.1mM) and 0.946 ± 0.074 (concentration: 0.5mM).
For UniProt Q9UIG0 and related entries, in that order: 0.988 ± 0.01 and 0.994 ± 0.032.
For the target UniProt Q9UJS0 and related entries, the NP40-soluble protein abundance reads like this: (concentration: 0.1mM) 1.03 ± 0.054; (concentration: 0.5mM) 1.08 ± 0.068.
For UniProt Q9UJ68 and related entries, in that order: 1.06 ± 0.075 and 1.03 ± 0.1.
On to UniProt Q9UIB8 and related entries, for which the NP40-soluble protein abundance stood at 0.9855 ± 0.0015 (concentration: 0.1mM) and 0.957 ± 0.053 (concentration: 0.5mM).
With FAM8A1 (UniProt Q9UBU6), the NP40-soluble protein abundance by setting is: (concentration: 0.1mM) 1.01 ± 0.06; (concentration: 0.5mM) 1 ± 0.08.
For COPG2 (UniProt Q9UBF2), in that order: 0.995 ± 0.066 and 1.03 ± 0.02.
For PLCL2 (UniProt Q9UPR0), in that order: 0.984 ± 0.091 and 0.976 ± 0.051.
As for UniProt Q9UI26 and related entries, the NP40-soluble protein abundance was found to be 1.05 ± 0.058 (concentration: 0.1mM) and 1.08 ± 0.059 (concentration: 0.5mM).
On the same counts, the results for SLC5A6 (UniProt Q9Y289) are 0.962 ± 0.0049 and 0.969 ± 0.033.
For the target STUB1 (UniProt Q9UNE7), the NP40-soluble protein abundance (concentration: 0.1mM) is 0.965 ± 0.042 and the NP40-soluble protein abundance (concentration: 0.5mM) amounted to 0.954 ± 0.03.
Turning to GINS2 (UniProt Q9Y248), the NP40-soluble protein abundance by setting is: (concentration: 0.1mM) 0.945 ± 0.047; (concentration: 0.5mM) 0.941 ± 0.054.
MRTO4 (UniProt Q9UKD2): the NP40-soluble protein abundance (concentration: 0.1mM) was 1 ± 0.068 and the NP40-soluble protein abundance (concentration: 0.5mM) stood at 1.1 ± 0.051.
Take SERGEF (UniProt Q9UGK8): the NP40-soluble protein abundance was 0.995 ± 0.1 (concentration: 0.1mM) and 1 ± 0.12 (concentration: 0.5mM).
Regarding UniProt Q9UGP4 and related entries, the NP40-soluble protein abundance came out at 1.02 ± 0.036 (concentration: 0.1mM) and 1.02 ± 0.03 (concentration: 0.5mM).
For UniProt Q9P2R7 and related entries, in that order: 1.01 ± 0.05 and 1.02 ± 0.063.
In the case of ZNF148 (UniProt Q9UQR1), the NP40-soluble protein abundance by setting is: (concentration: 0.1mM) 1.04 ± 0.018; (concentration: 0.5mM) 1.02 ± 0.035.
In the case of DUSP12 (UniProt Q9UNI6), the NP40-soluble protein abundance was found to be 1.04 ± 0.098 (concentration: 0.1mM) and 1.07 ± 0.12 (concentration: 0.5mM).
On the same counts, the results for UniProt Q9UI08-2|Q9UI08 are 0.9613 ± 0.0085 and 0.951 ± 0.016.
Take UniProt Q9UPP1 and related entries: the NP40-soluble protein abundance amounted to 1.02 ± 0.037 (concentration: 0.1mM) and 1.03 ± 0.029 (concentration: 0.5mM).
Regarding EXTL2 (UniProt Q9UBQ6), the NP40-soluble protein abundance by setting is: (concentration: 0.1mM) 1.02 ± 0.029; (concentration: 0.5mM) 0.982 ± 0.064.
For the target SEC63 (UniProt Q9UGP8), the NP40-soluble protein abundance is, setting by setting: (concentration: 0.1mM) 1.01 ± 0.056; (concentration: 0.5mM) 1.03 ± 0.049.
For UniProt Q9Y237 and related entries, in that order: 0.948 ± 0.024 and 0.935 ± 0.062.
On the same counts, the results for NIPSNAP3A (UniProt Q9UFN0) are 1.1 ± 0.14 and 1.06 ± 0.11.
As for MBD2 (UniProt Q9UBB5), the NP40-soluble protein abundance was 0.987 ± 0.081 (concentration: 0.1mM) and 0.956 ± 0.053 (concentration: 0.5mM).
As for PA2G4 (UniProt Q9UQ80), the NP40-soluble protein abundance by setting is: (concentration: 0.1mM) 0.989 ± 0.047; (concentration: 0.5mM) 1 ± 0.046.
For UVRAG (UniProt Q9P2Y5), in that order: 1.04 ± 0.026 and 1.08 ± 0.071.
